Data as given in PubChem BioAssay AID504793 (Drosophila RNAi Screening Center, 2011).

- Purpose: 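Knock-downs allowing continued mitosis even though DNA is damaged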 (primary screen)
- Cells: Drosophila S2R+ cells
- Knock-down reagent: long dsRNA against Drosophila genes, about 0.25 µg dsRNA per well
- Duration: 4 days of dsRNA, then 4 hours of drug before read-out
- Treatment: doxorubicin 0.5 µM for 4 hours to cause double-strand breaks, in cells also given a low, harmless dose of dsRNA against nbs to sensitise the assay
- Read-out: 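Mitotic index as the number of phospho-histone H3-positive cells in each well following doxorubicin, given as raw counts without normalisation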
- Reading the numbers: mitotic cells: higher = more cells in mitosis, weaker G2 arrest
- Rule for the call: 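a call needs confirmation in secondary tests, with other dsRNAs and a check of mitotic timing without damage, not just a high primary count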
- Meaning of the calls: active = confirmed in follow-up tests; inactive = not confirmed
The screen tested about 23,000 reagents; this is an unselected part of those with a known target gene and a result. Of all reagents, 62 (0.27%) got an active call. 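Calls come from follow-up tests whose scores are not deposited, so confirmed genes may have low counts here; counts are not normalised per plate.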 Raw values vary from plate to plate and are shown uncorrected. Entries without a mark were called inactive. Reagents against one gene are numbered here. Names joined by + are all predicted targets of the reagent. Reagent sequences are not shown.

| predicted target | dsRNA no. | mitotic cells, replicate 1 |
| --- | --- | --- |
| Osi8 (Osiris 8) | 1 | 5 |
| Osi8 (Osiris 8) | 2 | 12 |
| PH4alphaPV (prolyl-4-hydroxylase-alpha PV) | 1 | 11 |
| PH4alphaPV (prolyl-4-hydroxylase-alpha PV) | 2 | 7 |
| Sec61gamma (Sec61 gamma subunit) | 1 | 11 |
| Sec61gamma (Sec61 gamma subunit) | 2 | 5 |
| Cpr35B (Cuticular protein 35B) | 1 | 14 |
| Cpr35B (Cuticular protein 35B) | 2 | 4 |
| Cpr35B (Cuticular protein 35B) | 3 | 7 |
| CG10979 | 1 | 17 |
| SmydA-6 (SET and MYND domain containing, arthropod-specific, member 6) | 1 | 6 |
| tal-1A + tal-2A + tal-AA + 1 more | 1 | 10 |
| CG16789 | 1 | 7 |
| CG3927 | 1 | 2 |
| CG3927 | 2 | 11 |
| Hmbs (Hydroxymethylbilane synthase) | 1 | 3 |
| mld (molting defective) | 1 | 3 |
| mld (molting defective) | 2 | 4 |
| mld (molting defective) | 3 | 16 |
| mld (molting defective) | 4 | 9 |
| mld (molting defective) | 5 | 6 |
| CG2852 | 1 | 5 |
| CG2852 | 2 | 6 |
| CG32305 | 1 | 3 |
| CG32305 | 2 | 10 |
| Polr3H (RNA polymerase III subunit H) | 1 | 5 |
| sage (salivary gland-expressed bHLH) | 1 | 7 |
| sage (salivary gland-expressed bHLH) | 2 | 14 |
| Usp1 (Ubiquitin specific protease 1) | 1 | 10 |
| CG3632 | 1 | 9 |
| CG9701 | 1 | 6 |
| CG9701 | 2 | 4 |
| CG31886 | 1 | 6 |
| CG31886 | 2 | 6 |
| CG6592 | 1 | 2 |
| Dlip3 (Dorsal interacting protein 3) | 1 | 5 |
| Dlip3 (Dorsal interacting protein 3) | 2 | 6 |
| CG31668 | 1 | 8 |
| CG15465 | 1 | 17 |
| CG15465 | 2 | 7 |
| Vps2 (Vacuolar protein sorting 2) | 1 | 17 |
| Vps2 (Vacuolar protein sorting 2) | 2 | 23 |
| Spf30 (Splicing factor 30) | 1 | 1 |
| E(spl)m8-HLH (Enhancer of split m8, helix-loop-helix) | 1 | 9 |
| E(spl)m8-HLH (Enhancer of split m8, helix-loop-helix) | 2 | 3 |

4 consecutive records already listed, quoted:
| predicted target | dsRNA no. | mitotic cells, replicate 1 |
| --- | --- | --- |
| mld (molting defective) | 2 | 4 |
| mld (molting defective) | 3 | 16 |
| mld (molting defective) | 4 | 9 |
| mld (molting defective) | 5 | 6 |
